In this experiment the target is feline FcRn (soluble portion of large subunit p51 isoform X1 with C-terminal 6xHis-tag, co-expressed with feline beta2-microglobulin with C-terminal STREP-TAG II) (feline) (UniProt Q5MGS7). Kind of experiment: SPR, pH 5.9. On the technique in general: Surface plasmon resonance follows binding to a sensor surface in real time, without labels.

Chains of the proteins cited; added tags and fusions are not shown. Lines headed by an entry give the natural chain unless they say otherwise; changes in a name come on top.
UniProt Q5MGS7: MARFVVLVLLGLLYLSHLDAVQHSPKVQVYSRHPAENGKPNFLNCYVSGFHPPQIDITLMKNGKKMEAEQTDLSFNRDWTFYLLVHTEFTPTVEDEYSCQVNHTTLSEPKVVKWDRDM

No constants are given. Whether binding was seen depends on the method and setting. Some binding calls cover weakened binding; strength is not graded here. Sequences can lack the tags named with a protein.

B1: IgG with feline IgG1a Fc variant S428M, Q311V (antibody)
heavy: DVQLVESGGDLVKPGGSLRLTCVASGLSLTSDSMSWVRQAPGKGLQWVSTLWSNRGTYYTDSVKGRFTISKDNAENTLYLQMNNLKTEDTATYYCASIYYYEADYLHWYFDFWGQGALVTVSSASTTAPSVFPLAPSCGTTSGATVALACLVLGYFPEPVTVSWNSGALTSGVHTFPAVLQASGLYSLSSMVTVPSSRWLSDTFTCNVAHPPSNTKVDKTVRKTDHPPGPKPCDCPKCPPPEAAGGPSIFIFPPKPKDTLSISRTPEVTCLVVDLGPDDSDVQITWFVDNTQVYTAKTSPREEQFNSTYRVVSVLPILHVDWLKGKEFKCKVNSKSLPSPIERTISKAKGQPHEPQVYVLPPAQEELSRNKVSVTCLIKSFHPPDIAVEWEITGQPEPENNYRTTPPQLDSDGTYFVYSKLSVDRSHWQRGNTYTCSVMHEALHSHHTQKSLTQSPG
light: EIQMTQSPTSLSASVGDRVTITCRASEGIANNLSWYQQTPGKAPKLLIYATSNLHSGVPSRFSGSGSGTDFTLTISSLQPEDFATYYCQQGFKWPLTFGGGTKLEITRSDAQPSVFLFQPSLDELHTGSASIVCILNDFYPKEVNVKWKVDGVVQNKGIQESTTEQNSKDSTYSLSSTLTMSSTEYQSHEKFSCEVTHKSLASTLVKSFNRSECQRE
notes: IgG1a constant domain with MALA mutations (M234A, L244A as printed); variable domains from WO 2023/97275
As to B1, the binding result is on record as “binds”.

B2: IgG with feline IgG1a Fc variant S428M, R301V (antibody)
heavy: DVQLVESGGDLVKPGGSLRLTCVASGLSLTSDSMSWVRQAPGKGLQWVSTLWSNRGTYYTDSVKGRFTISKDNAENTLYLQMNNLKTEDTATYYCASIYYYEADYLHWYFDFWGQGALVTVSSASTTAPSVFPLAPSCGTTSGATVALACLVLGYFPEPVTVSWNSGALTSGVHTFPAVLQASGLYSLSSMVTVPSSRWLSDTFTCNVAHPPSNTKVDKTVRKTDHPPGPKPCDCPKCPPPEAAGGPSIFIFPPKPKDTLSISRTPEVTCLVVDLGPDDSDVQITWFVDNTQVYTAKTSPREEQFNSTYVVVSVLPILHQDWLKGKEFKCKVNSKSLPSPIERTISKAKGQPHEPQVYVLPPAQEELSRNKVSVTCLIKSFHPPDIAVEWEITGQPEPENNYRTTPPQLDSDGTYFVYSKLSVDRSHWQRGNTYTCSVMHEALHSHHTQKSLTQSPG
light: EIQMTQSPTSLSASVGDRVTITCRASEGIANNLSWYQQTPGKAPKLLIYATSNLHSGVPSRFSGSGSGTDFTLTISSLQPEDFATYYCQQGFKWPLTFGGGTKLEITRSDAQPSVFLFQPSLDELHTGSASIVCILNDFYPKEVNVKWKVDGVVQNKGIQESTTEQNSKDSTYSLSSTLTMSSTEYQSHEKFSCEVTHKSLASTLVKSFNRSECQRE
notes: as for B1
Turning to B2, the binding entry was “binds”.

B3: IgG with feline IgG1a Fc variant S428M, T286E (antibody)
heavy: DVQLVESGGDLVKPGGSLRLTCVASGLSLTSDSMSWVRQAPGKGLQWVSTLWSNRGTYYTDSVKGRFTISKDNAENTLYLQMNNLKTEDTATYYCASIYYYEADYLHWYFDFWGQGALVTVSSASTTAPSVFPLAPSCGTTSGATVALACLVLGYFPEPVTVSWNSGALTSGVHTFPAVLQASGLYSLSSMVTVPSSRWLSDTFTCNVAHPPSNTKVDKTVRKTDHPPGPKPCDCPKCPPPEAAGGPSIFIFPPKPKDTLSISRTPEVTCLVVDLGPDDSDVQITWFVDNTQVYEAKTSPREEQFNSTYRVVSVLPILHQDWLKGKEFKCKVNSKSLPSPIERTISKAKGQPHEPQVYVLPPAQEELSRNKVSVTCLIKSFHPPDIAVEWEITGQPEPENNYRTTPPQLDSDGTYFVYSKLSVDRSHWQRGNTYTCSVMHEALHSHHTQKSLTQSPG
light: EIQMTQSPTSLSASVGDRVTITCRASEGIANNLSWYQQTPGKAPKLLIYATSNLHSGVPSRFSGSGSGTDFTLTISSLQPEDFATYYCQQGFKWPLTFGGGTKLEITRSDAQPSVFLFQPSLDELHTGSASIVCILNDFYPKEVNVKWKVDGVVQNKGIQESTTEQNSKDSTYSLSSTLTMSSTEYQSHEKFSCEVTHKSLASTLVKSFNRSECQRE
notes: as for B1
Consider B3, for which the binding entry is “binds”.

B4: IgG with feline IgG1a Fc variant S428M, T286D (antibody)
heavy: DVQLVESGGDLVKPGGSLRLTCVASGLSLTSDSMSWVRQAPGKGLQWVSTLWSNRGTYYTDSVKGRFTISKDNAENTLYLQMNNLKTEDTATYYCASIYYYEADYLHWYFDFWGQGALVTVSSASTTAPSVFPLAPSCGTTSGATVALACLVLGYFPEPVTVSWNSGALTSGVHTFPAVLQASGLYSLSSMVTVPSSRWLSDTFTCNVAHPPSNTKVDKTVRKTDHPPGPKPCDCPKCPPPEAAGGPSIFIFPPKPKDTLSISRTPEVTCLVVDLGPDDSDVQITWFVDNTQVYDAKTSPREEQFNSTYRVVSVLPILHQDWLKGKEFKCKVNSKSLPSPIERTISKAKGQPHEPQVYVLPPAQEELSRNKVSVTCLIKSFHPPDIAVEWEITGQPEPENNYRTTPPQLDSDGTYFVYSKLSVDRSHWQRGNTYTCSVMHEALHSHHTQKSLTQSPG
light: EIQMTQSPTSLSASVGDRVTITCRASEGIANNLSWYQQTPGKAPKLLIYATSNLHSGVPSRFSGSGSGTDFTLTISSLQPEDFATYYCQQGFKWPLTFGGGTKLEITRSDAQPSVFLFQPSLDELHTGSASIVCILNDFYPKEVNVKWKVDGVVQNKGIQESTTEQNSKDSTYSLSSTLTMSSTEYQSHEKFSCEVTHKSLASTLVKSFNRSECQRE
notes: as for B1
For the molecule B4, the binding entry is on record as “binds”.

B5: IgG with feline IgG1a Fc variant S428M, R392D (antibody)
heavy: DVQLVESGGDLVKPGGSLRLTCVASGLSLTSDSMSWVRQAPGKGLQWVSTLWSNRGTYYTDSVKGRFTISKDNAENTLYLQMNNLKTEDTATYYCASIYYYEADYLHWYFDFWGQGALVTVSSASTTAPSVFPLAPSCGTTSGATVALACLVLGYFPEPVTVSWNSGALTSGVHTFPAVLQASGLYSLSSMVTVPSSRWLSDTFTCNVAHPPSNTKVDKTVRKTDHPPGPKPCDCPKCPPPEAAGGPSIFIFPPKPKDTLSISRTPEVTCLVVDLGPDDSDVQITWFVDNTQVYTAKTSPREEQFNSTYRVVSVLPILHQDWLKGKEFKCKVNSKSLPSPIERTISKAKGQPHEPQVYVLPPAQEELSRNKVSVTCLIKSFHPPDIAVEWEITGQPEPENNYDTTPPQLDSDGTYFVYSKLSVDRSHWQRGNTYTCSVMHEALHSHHTQKSLTQSPG
light: EIQMTQSPTSLSASVGDRVTITCRASEGIANNLSWYQQTPGKAPKLLIYATSNLHSGVPSRFSGSGSGTDFTLTISSLQPEDFATYYCQQGFKWPLTFGGGTKLEITRSDAQPSVFLFQPSLDELHTGSASIVCILNDFYPKEVNVKWKVDGVVQNKGIQESTTEQNSKDSTYSLSSTLTMSSTEYQSHEKFSCEVTHKSLASTLVKSFNRSECQRE
notes: as for B1
Consider B5, for which the binding result is on record as “binds”.

B6: IgG with feline IgG1a Fc variant S428M, R301L (antibody)
heavy: DVQLVESGGDLVKPGGSLRLTCVASGLSLTSDSMSWVRQAPGKGLQWVSTLWSNRGTYYTDSVKGRFTISKDNAENTLYLQMNNLKTEDTATYYCASIYYYEADYLHWYFDFWGQGALVTVSSASTTAPSVFPLAPSCGTTSGATVALACLVLGYFPEPVTVSWNSGALTSGVHTFPAVLQASGLYSLSSMVTVPSSRWLSDTFTCNVAHPPSNTKVDKTVRKTDHPPGPKPCDCPKCPPPEAAGGPSIFIFPPKPKDTLSISRTPEVTCLVVDLGPDDSDVQITWFVDNTQVYTAKTSPREEQFNSTYLVVSVLPILHQDWLKGKEFKCKVNSKSLPSPIERTISKAKGQPHEPQVYVLPPAQEELSRNKVSVTCLIKSFHPPDIAVEWEITGQPEPENNYRTTPPQLDSDGTYFVYSKLSVDRSHWQRGNTYTCSVMHEALHSHHTQKSLTQSPG
light: EIQMTQSPTSLSASVGDRVTITCRASEGIANNLSWYQQTPGKAPKLLIYATSNLHSGVPSRFSGSGSGTDFTLTISSLQPEDFATYYCQQGFKWPLTFGGGTKLEITRSDAQPSVFLFQPSLDELHTGSASIVCILNDFYPKEVNVKWKVDGVVQNKGIQESTTEQNSKDSTYSLSSTLTMSSTEYQSHEKFSCEVTHKSLASTLVKSFNRSECQRE
notes: as for B1
Consider B6, for which the binding entry is “binds”.

B7: IgG with feline IgG1a Fc variant S428M, R392E (antibody)
heavy: DVQLVESGGDLVKPGGSLRLTCVASGLSLTSDSMSWVRQAPGKGLQWVSTLWSNRGTYYTDSVKGRFTISKDNAENTLYLQMNNLKTEDTATYYCASIYYYEADYLHWYFDFWGQGALVTVSSASTTAPSVFPLAPSCGTTSGATVALACLVLGYFPEPVTVSWNSGALTSGVHTFPAVLQASGLYSLSSMVTVPSSRWLSDTFTCNVAHPPSNTKVDKTVRKTDHPPGPKPCDCPKCPPPEAAGGPSIFIFPPKPKDTLSISRTPEVTCLVVDLGPDDSDVQITWFVDNTQVYTAKTSPREEQFNSTYRVVSVLPILHQDWLKGKEFKCKVNSKSLPSPIERTISKAKGQPHEPQVYVLPPAQEELSRNKVSVTCLIKSFHPPDIAVEWEITGQPEPENNYETTPPQLDSDGTYFVYSKLSVDRSHWQRGNTYTCSVMHEALHSHHTQKSLTQSPG
light: EIQMTQSPTSLSASVGDRVTITCRASEGIANNLSWYQQTPGKAPKLLIYATSNLHSGVPSRFSGSGSGTDFTLTISSLQPEDFATYYCQQGFKWPLTFGGGTKLEITRSDAQPSVFLFQPSLDELHTGSASIVCILNDFYPKEVNVKWKVDGVVQNKGIQESTTEQNSKDSTYSLSSTLTMSSTEYQSHEKFSCEVTHKSLASTLVKSFNRSECQRE
notes: as for B1
With B7, the binding result is recorded as “binds”.

B8: IgG with feline IgG1a Fc variant S428M, R301Y (antibody)
heavy: DVQLVESGGDLVKPGGSLRLTCVASGLSLTSDSMSWVRQAPGKGLQWVSTLWSNRGTYYTDSVKGRFTISKDNAENTLYLQMNNLKTEDTATYYCASIYYYEADYLHWYFDFWGQGALVTVSSASTTAPSVFPLAPSCGTTSGATVALACLVLGYFPEPVTVSWNSGALTSGVHTFPAVLQASGLYSLSSMVTVPSSRWLSDTFTCNVAHPPSNTKVDKTVRKTDHPPGPKPCDCPKCPPPEAAGGPSIFIFPPKPKDTLSISRTPEVTCLVVDLGPDDSDVQITWFVDNTQVYTAKTSPREEQFNSTYYVVSVLPILHQDWLKGKEFKCKVNSKSLPSPIERTISKAKGQPHEPQVYVLPPAQEELSRNKVSVTCLIKSFHPPDIAVEWEITGQPEPENNYRTTPPQLDSDGTYFVYSKLSVDRSHWQRGNTYTCSVMHEALHSHHTQKSLTQSPG
light: EIQMTQSPTSLSASVGDRVTITCRASEGIANNLSWYQQTPGKAPKLLIYATSNLHSGVPSRFSGSGSGTDFTLTISSLQPEDFATYYCQQGFKWPLTFGGGTKLEITRSDAQPSVFLFQPSLDELHTGSASIVCILNDFYPKEVNVKWKVDGVVQNKGIQESTTEQNSKDSTYSLSSTLTMSSTEYQSHEKFSCEVTHKSLASTLVKSFNRSECQRE
notes: as for B1
B8: the binding entry is on record as “binds”.
